Results are given in words; binding and its absence hold for the method and conditions named. Some entries that bind do so weakly or less than the wild type.
Biological target: mutant murine p53 from the mouse tumour cell line MethA (mouse) (UniProt P02340)
Test: immunoprecipitation from MethA lysate, immunoblot (FIG. 8 legend)

B1: whole anti-p53 antibody from CHO clone C4B4 (antibody, V domains shown)
VH: VQLLEQSGAEVKRPGASVTISCQASRQDFSGQYIHWVRQAPGQGFEWMGIINPSGGSANYAPKFKGRLTMSRDSSTDTVYMTLTSLTSEDTAVYYCLLQALKHWGQGTLVAVSS
VL: AAELTQSPDSLAVALGERATINCKSSQSVLYSLNNKNYLAWYQQKPGQPPKLLIHWASTRESGVPDRFSGSGSETDFTLTISSLQAEDVAVYYCQQYYTTPYTFGQGTKLEIK
- binding: binds

Reference: patent US20070128672A1
